{"source": "the supplement of paper PMC5949888", "note": "± gives the standard deviation of the averaged measurements. Most values lie at the floor of the assay. Slopes are relative: functional sequences can read slightly below zero."}
{"test_system": "Saccharomyces cerevisiae PS128 hsf1 delta, HSF1(1-493) fusion", "experiment": "growth estimate (transactivation domain function in HSF1 fusion, heat-shock survival) (a.u. (slope of normalised read count over time)); higher = stronger growth at 37°C, i.e. more transactivation activity", "details": "library: random library"}
{"substance": "LEGLKLWLGAVGEPLD", "growth estimate": "< -0.25"}
{"substance": "LEITFRVAPRCHVQT", "growth estimate": "< -0.25"}
{"substance": "LEK", "growth estimate": "< -0.25"}
{"substance": "LEKAYAVTVKAPSW", "growth estimate": "< -0.25"}
{"substance": "LEKCETIRGALINPR", "growth estimate": "< -0.25"}
{"substance": "LEKE", "growth estimate": "< -0.25"}
{"substance": "LEKGAV", "growth estimate": "< -0.25"}
{"substance": "LEKIQPRANWTLAL", "growth estimate": "< -0.25"}
{"substance": "LEKR", "growth estimate": "< -0.25"}
{"substance": "LELELKVLTGSRSCAFRLGL", "growth estimate": "< -0.25"}
{"substance": "LELLLIRHHRMCNLEVPC", "growth estimate": "< -0.25"}
{"substance": "LELNFYKEAAIVTGAVMCGL", "growth estimate": "< -0.25"}
{"substance": "LEMWAFLSCVESVRGDDIRC", "growth estimate": "< -0.25"}
{"substance": "LENGYA", "growth estimate": "< -0.25"}
{"substance": "LEPGL", "growth estimate": "< -0.25"}
{"substance": "LEPVGGSV", "growth estimate": -0.0166}
{"substance": "LEQASTLRWASRVRGGLASN", "growth estimate": "< -0.25"}
{"substance": "LEQLGLRGRSR", "growth estimate": "< -0.25"}
{"substance": "LEQRLVPSGRYYATMGSIDG", "growth estimate": "< -0.25"}
{"substance": "LEQTKSMV", "growth estimate": -0.245}
{"substance": "LERCLKEAVMRSQKS", "growth estimate": "< -0.25"}
{"substance": "LERPLRPLRAMLIWRSKVIN", "growth estimate": "< -0.25"}
{"substance": "LERQNEPRALI", "growth estimate": "< -0.25"}
{"substance": "LERQPYSDPDCTTR", "growth estimate": "< -0.25"}
{"substance": "LESAVSVIAGSRVGLGTALS", "growth estimate": "< -0.25"}
{"substance": "LESPVNVPYRRGMLPTIEIG", "growth estimate": "< -0.25"}
{"substance": "LESQFDNCTYHDSAAVHGIG", "growth estimate": "< -0.25"}
{"substance": "LEVGVGVMFGLTSCAEEVAG", "growth estimate": "< -0.25"}
{"substance": "LEVSERM", "growth estimate": "< -0.25"}
{"substance": "LEYPLGRVYSHLDICAYWR", "growth estimate": "< -0.25"}
{"substance": "LEYR", "growth estimate": "< -0.25"}
{"substance": "LFAVGRNDRYTWSFMGLYVC", "growth estimate": "< -0.25"}
{"substance": "LFDIHLP", "growth estimate": "< -0.25"}
{"substance": "LFG", "growth estimate": "< -0.25"}
{"substance": "LFGVKVRHINLITVVGQDQQ", "growth estimate": "< -0.25"}
{"substance": "LFHSVLNASATAVTREVTYD", "growth estimate": "< -0.25"}
{"substance": "LFIADDWVRPLTQVT", "growth estimate": "< -0.25"}
{"substance": "LFIISTT", "growth estimate": "< -0.25"}
{"substance": "LFIRLGAVGDVQLFHDGARG", "growth estimate": "< -0.25"}
{"substance": "LFKQRVSNNTWSGSPASGTL", "growth estimate": "< -0.25"}
{"substance": "LFLFEADLCLGLSAEGRY", "growth estimate": -0.121}
{"substance": "LFLSGLLVFQE", "growth estimate": "< -0.25"}
{"substance": "LFPEWCPAKRWFYQARTSSH", "growth estimate": "< -0.25"}
{"substance": "LFQGSIGRFR", "growth estimate": "< -0.25"}
{"substance": "LFQLNSAHVIFRWSQPCHES", "growth estimate": "< -0.25"}
{"substance": "LFREKALVSWLRHCSS", "growth estimate": "< -0.25"}
{"substance": "LFSFL", "growth estimate": -0.212}
{"substance": "LFSGFRCYIAV", "growth estimate": "< -0.25"}
{"substance": "LFSGGRARFNQVERLWDRCR", "growth estimate": "< -0.25"}
{"substance": "LFSGVRWGDHSG", "growth estimate": "< -0.25"}
{"substance": "LFSKS", "growth estimate": "< -0.25"}
{"substance": "LFVDAT", "growth estimate": "< -0.25"}
{"substance": "LFVFRYRCCGVGVQEPSRGE", "growth estimate": "< -0.25"}
{"substance": "LFVGGFLGVRLSKRPCSHDR", "growth estimate": "< -0.25"}
{"substance": "LFYGPMVCLDRAPFLPMQRQ", "growth estimate": "< -0.25"}
{"substance": "LGA", "growth estimate": "< -0.25"}
{"substance": "LGAFILLLKPGGYENAEHQV", "growth estimate": "< -0.25"}
{"substance": "LGAGEFLHCVRISILYLLHA", "growth estimate": "< -0.25"}
{"substance": "LGATYDVVFRDLVVDPGRYV", "growth estimate": -0.175}
{"substance": "LGAW", "growth estimate": "< -0.25"}
{"substance": "LGCFGERSFRVHILGT", "growth estimate": "< -0.25"}
{"substance": "LGCGIEVGGIVTA", "growth estimate": "< -0.25"}
{"substance": "LGCIMEQYARMLLIVVRRRT", "growth estimate": "< -0.25"}
{"substance": "LGCKATYSTLSMAFL", "growth estimate": -0.246}
{"substance": "LGCSASHFHN", "growth estimate": "< -0.25"}
{"substance": "LGCVASYRHETS", "growth estimate": "< -0.25"}
{"substance": "LGCVMPANFRDSTPCFIDLT", "growth estimate": "< -0.25"}
{"substance": "LGD", "growth estimate": "-0.247 ± 0.0037"}
{"substance": "LGDGKSDRRYSMTEEPVSTV", "growth estimate": "< -0.25"}
{"substance": "LGELNAKFSAAFQTAFIESC", "growth estimate": "< -0.25"}
{"substance": "LGFGRTVSTYR", "growth estimate": "< -0.25"}
{"substance": "LGFLR", "growth estimate": "< -0.25"}
{"substance": "LGFSKRF", "growth estimate": "< -0.25"}
{"substance": "LGFSVPTQRNLSIVILTDRL", "growth estimate": "< -0.25"}
{"substance": "LGFTLRAPGAVSGPNAHTGL", "growth estimate": "< -0.25"}
{"substance": "LGFVGFRGYVVRRLLRAGYL", "growth estimate": "< -0.25"}
{"substance": "LGG", "growth estimate": "-0.2492 ± 0.0011"}
{"substance": "LGGAFPVVDAWHRVRERLAC", "growth estimate": "< -0.25"}
{"substance": "LGGAKAVWSKYWIIVPIYGS", "growth estimate": "< -0.25"}
{"substance": "LGGDDDTCWGKFSHITVLAP", "growth estimate": "< -0.25"}
{"substance": "LGGELG", "growth estimate": "< -0.25"}
{"substance": "LGGIGQKHR", "growth estimate": "< -0.25"}
{"substance": "LGGMLNLKTPISLRVVVTQN", "growth estimate": "< -0.25"}
{"substance": "LGGPYLFIARDMGGAVAALR", "growth estimate": "< -0.25"}
{"substance": "LGGSCAYPNLISPVSLGN", "growth estimate": "< -0.25"}
{"substance": "LGGSGCQDARRQHVEHLSHR", "growth estimate": "< -0.25"}
{"substance": "LGGYWQ", "growth estimate": "< -0.25"}
{"substance": "LGHHHRH", "growth estimate": "< -0.25"}
{"substance": "LGIAAEGDMGRTETLKKWAA", "growth estimate": "< -0.25"}
{"substance": "LGILIKVQEGH", "growth estimate": "< -0.25"}
{"substance": "LGIQTVETDPLGPLMWHGLQ", "growth estimate": "< -0.25"}
{"substance": "LGITCSKCTSSRCSRSLLPS", "growth estimate": "< -0.25"}
{"substance": "LGIY", "growth estimate": "< -0.25"}
{"substance": "LGIYASLARSVAVVRPKKRR", "growth estimate": "< -0.25"}
{"substance": "LGLNRIVGGAPVGLCNP", "growth estimate": "< -0.25"}
{"substance": "LGLP", "growth estimate": "< -0.25"}
{"substance": "LGLSITIRIIRSGP", "growth estimate": -0.223}
{"substance": "LGMGGPRGLIGWFADLSVFR", "growth estimate": "< -0.25"}
{"substance": "LGMGSVYPSGVCV", "growth estimate": "< -0.25"}
{"substance": "LGN", "growth estimate": -0.0494}
{"substance": "LGNGWN", "growth estimate": "< -0.25"}
{"substance": "LGNS", "growth estimate": "< -0.25"}
{"substance": "LGPGCLSPEQGQAVPAEVKA", "growth estimate": "< -0.25"}
{"substance": "LGPLKRLTRRGPPCHAQLPV", "growth estimate": "< -0.25"}
{"substance": "LGPSHSAQCGLQV", "growth estimate": "< -0.25"}
{"substance": "LGPTLPRALGPLREDQTIAL", "growth estimate": "< -0.25"}
{"substance": "LGPWSMIGGQH", "growth estimate": "< -0.25"}
{"substance": "LGQIRSMSEPNEHPADNLYW", "growth estimate": "< -0.25"}
{"substance": "LGQLDTLRWTRWRGISDERI", "growth estimate": "< -0.25"}
{"substance": "LGQLNLRPRVCC", "growth estimate": "< -0.25"}
{"substance": "LGQLQSVCVQHMVGLTHRSR", "growth estimate": "< -0.25"}
{"substance": "LGQPKGDQDHRRGRAGTGCL", "growth estimate": "< -0.25"}
{"substance": "LGQSGSRKW", "growth estimate": -0.248}
{"substance": "LGR", "growth estimate": "< -0.25"}
{"substance": "LGRFVGYHGMISVKGFIRTR", "growth estimate": -0.182}
{"substance": "LGRGHT", "growth estimate": "< -0.25"}
{"substance": "LGRGQLNTAPPDYVLR", "growth estimate": "< -0.25"}
{"substance": "LGRLDLARKVFPPEALHTTL", "growth estimate": "< -0.25"}
{"substance": "LGRNRLLVFC", "growth estimate": "< -0.25"}
{"substance": "LGRP", "growth estimate": "< -0.25"}
{"substance": "LGRRLSHSTDAENRRVNMGD", "growth estimate": "< -0.25"}
{"substance": "LGRRSIRLGSGCG", "growth estimate": "< -0.25"}
{"substance": "LGRRVVQIVLL", "growth estimate": "< -0.25"}
{"substance": "LGRSPPGKCRDRMPRGAITE", "growth estimate": "< -0.25"}
{"substance": "LGSKRNSLGSPGSMRSFVSL", "growth estimate": "< -0.25"}
{"substance": "LGSLSGAAKPSLRIKVARIP", "growth estimate": "< -0.25"}
{"substance": "LGSLTARA", "growth estimate": "< -0.25"}
{"substance": "LGSRVHTATTAQAPGKGEYG", "growth estimate": "< -0.25"}
{"substance": "LGSV", "growth estimate": "< -0.25"}
{"substance": "LGSVVYNPRW", "growth estimate": "< -0.25"}
{"substance": "LGSYGSAGGNATIPTRECLP", "growth estimate": "< -0.25"}
{"substance": "LGTG", "growth estimate": -0.231}
{"substance": "LGTKWVTQSAG", "growth estimate": "< -0.25"}
{"substance": "LGTSKCFGLDVGSVWCPTRR", "growth estimate": "< -0.25"}
{"substance": "LGTVGLLLSASR", "growth estimate": "< -0.25"}
{"substance": "LGTYRVSLTVWGLKVDHASK", "growth estimate": "< -0.25"}
{"substance": "LGVAEFYGSCE", "growth estimate": "< -0.25"}
{"substance": "LGVLGDKFGSQESSSDSCPC", "growth estimate": "< -0.25"}
{"substance": "LGVLWGAVLRKARLPRARFC", "growth estimate": "< -0.25"}
{"substance": "LGVLYY", "growth estimate": -0.246}
{"substance": "LGVMTAGSI", "growth estimate": "< -0.25"}
{"substance": "LGVVIHYWKSMPNEFL", "growth estimate": "< -0.25"}
{"substance": "LGVVIIPEGTRWIIRSYHPT", "growth estimate": "< -0.25"}
{"substance": "LGVYTVLGERLTDRPYSTFG", "growth estimate": "< -0.25"}
{"substance": "LGWGQPSHRRYDLGNWNSSF", "growth estimate": "< -0.25"}
{"substance": "LGWHRGANSSCGWGIGPLY", "growth estimate": "< -0.25"}
{"substance": "LGWIGK", "growth estimate": -0.243}
